Laboratory results reported in the supplement of paper PMC7877785.
± gives the uncertainty stated by the source. Many of these values have a large error.

Test: self-splicing fitness, log relative to wild type (ln ratio); higher = more splicing; Tetrahymena group I intron in knt gene, E. coli kanamycin selection, DiMSum; sequences stand for … in CUCUCU…GGAGGGAAAAGUUAUCAGGCAUGCACCUGGUAGCUAGUCUUUAAACCAAUAGAUUGCAUCGGUUUAAAAGGCAAGACCGUCAAAUUGCGGGAAAGGGGUCAACAGCCGUUCAGUACCAAGUCUCAGGGGAAACUUUGAGAUGGCCUUGCAAAGGGUAUGGUAAUAAGCUGACGGACAUGGUCCUAACCACGCAGCCAAGUCCUAAGUCAACAGAUCUUCUGUUGAUAUGGAUGCAGUUCACAGACUAAAUGUCGGUCGGGGAAGAUGUAUUCUUCUCAUAAGAUAUAGUCGGACCUCUCCUUAAUGGGAGCUAGCGGAUGAAGUGAUGCAACACUGGAGCCGCUGGGAACUAAUUUGUAUGCGAAAGUAUAUUGAUUAGUUUUGGAGUACUCGUGGUCG
Procedure, shortened: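 Pooled colonies went to amplicon sequencing on an Illumina HiSeq 2500 after six replicate transformations. The plates were LB agar with 100 μg/mL carbenicillin, 50 μM IPTG and 0.2% rhamnose, with or without 25 μg/mL kanamycin, incubated overnight at 37°C or 30°C. The E. coli BL21(DE3) library had all eight P1ex-region intron nucleotides randomised, the intron placed in the knt kanamycin-resistance gene on pET-22b(+). DiMSum fitness is the error-weighted combination of replicate fold changes, kanamycin against none, normalised to wild type.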

| Sequence | self-splicing fitness (ln) (30 °C) | self-splicing fitness (ln) (37 °C) |
| --- | --- | --- |
| CCCUAGCAAUAUUACGAAAC | -3.7 ± 1.1 | -2.54 ± 0.76 |
| CAGGAGCAAUAUUACGACAA | -3.06 ± 0.76 | -1.73 ± 0.41 |
| GGUGAGCAAUAUUACGCUCA | -1.23 ± 0.91 | -2.16 ± 1.1 |
| CGGCAGCAAUAUUACGUCGC | -3.6 ± 1 |  |
| CGUUAGCAAUAUUACGCGUA | -3.9 ± 0.74 |  |
| UAUAAGCAAUAUUACGAGAC | -3.61 ± 0.75 | -2.66 ± 0.76 |
| GUUGAGCAAUAUUACGCUAG |  | -2.29 ± 0.77 |
| UCGGAGCAAUAUUACGGCGA | -1.1 ± 0.18 | -0.689 ± 0.23 |
| AUUAAGCAAUAUUACGCGAG | -1.27 ± 0.1 | -0.38 ± 0.097 |
| GCGGAGCAAUAUUACGCCCA | -3.03 ± 0.54 | -0.681 ± 1 |
| CCUGAGCAAUAUUACGCCCU | -4.36 ± 0.73 |  |
| GAAUAGCAAUAUUACGCGGG | -3.86 ± 1 |  |
| GAGGAGCAAUAUUACGGAAG | -3.92 ± 1 | -1.26 ± 0.62 |
| GGUAAGCAAUAUUACGCCUC | 0.352 ± 0.54 | -2.47 ± 1.1 |
| GGGUAGCAAUAUUACGAAAA |  | -2.07 ± 0.52 |
| CAGGAGCAAUAUUACGUACU | -3.37 ± 0.52 |  |
| CAGAAGCAAUAUUACGGAAC | -3.6 ± 1 | -1.55 ± 0.68 |
| CUGGAGCAAUAUUACGAUCC | -3.34 ± 1.1 | -1.72 ± 0.52 |
| UGGUAGCAAUAUUACGCAAC |  | -3.55 ± 1 |
| UGUGAGCAAUAUUACGGAGG | -3.33 ± 0.29 | -2.11 ± 0.34 |
| GGAGAGCAAUAUUACGAGCC |  | -2.29 ± 1.1 |
| CAAUAGCAAUAUUACGGUUC |  | -2.05 ± 0.8 |
| ACAUAGCAAUAUUACGCGUU | -3.55 ± 0.24 | -2.39 ± 0.15 |
| CUCUAGCAAUAUUACGGCCU | -1.63 ± 0.5 |  |

Part of the list above in a different format.
Sequence | self-splicing fitness (ln) (30 °C) | self-splicing fitness (ln) (37 °C)
GUUGAGCAAUAUUACGCUAG |  | -2.29 ± 0.77
UCGGAGCAAUAUUACGGCGA | -1.1 ± 0.18 | -0.689 ± 0.23

Continued:

| Sequence | self-splicing fitness (ln) (30 °C) | self-splicing fitness (ln) (37 °C) |
| --- | --- | --- |
| ACAGAGCAAUAUUACGCGCU | -4.63 ± 0.71 |  |
| UUCGAGCAAUAUUACGUCGA | -5.01 ± 0.71 | -1.49 ± 0.19 |
| AUCGAGCAAUAUUACGAUUC |  | -2.4 ± 0.63 |
| CAUUAGCAAUAUUACGGCCC | -2.67 ± 0.57 | -2.21 ± 0.8 |
| CUAAAGCAAUAUUACGCCCU | -2.94 ± 0.84 | -1.47 ± 1.2 |
| CUUCAGCAAUAUUACGUCCC | -3.86 ± 0.74 |  |
| GCGGAGCAAUAUUACGGCUA | -2.01 ± 0.52 |  |
| GUCGAGCAAUAUUACGAAGG |  | -1.64 ± 0.68 |
| AUAGAGCAAUAUUACGAGAA | -4.45 ± 0.59 |  |
| GUCAAGCAAUAUUACGCUGG | -4.08 ± 0.28 | -3.72 ± 0.29 |
| CAGGAGCAAUAUUACGGUGU | -3.1 ± 0.15 | -2.66 ± 0.2 |
| CGCGAGCAAUAUUACGACUU | -2.31 ± 0.5 |  |
| GAAGAGCAAUAUUACGCCGA | -2.92 ± 0.62 | -4.93 ± 1 |
| CUUCAGCAAUAUUACGUACA | -2.87 ± 0.63 |  |
| AUUGAGCAAUAUUACGCCAA | -1.2 ± 0.59 | -0.98 ± 0.77 |
| GAAGAGCAAUAUUACGAGGA | -2.21 ± 0.79 | -2.66 ± 0.61 |
| UUUGAGCAAUAUUACGUAGU |  | -3.69 ± 1 |
| GUCGAGCAAUAUUACGAGAU | -4.44 ± 0.51 |  |
| CCAAAGCAAUAUUACGCUCC | -1.01 ± 0.2 | -1.74 ± 0.36 |
| CUGUAGCAAUAUUACGCCAG | -2.6 ± 0.78 | -1.71 ± 0.59 |
| GUUGAGCAAUAUUACGCUCU |  | -0.595 ± 0.78 |
| AGAGAGCAAUAUUACGUUUG |  | -3.54 ± 0.74 |
| CUAAAGCAAUAUUACGGUAC | -5.12 ± 0.51 |  |
| CGUAAGCAAUAUUACGUCUU | -3.7 ± 0.22 | -1.37 ± 0.14 |

| Sequence | self-splicing fitness (ln) (30 °C) | self-splicing fitness (ln) (37 °C) |
| --- | --- | --- |
| AUGGAGCAAUAUUACGAUUG | -2.3 ± 0.25 | -3.12 ± 0.33 |
| AUAGAGCAAUAUUACGCUGU | -0.963 ± 0.11 | 0.0295 ± 0.14 |
| GUCCAGCAAUAUUACGAGCC | -1.18 ± 0.15 | -0.519 ± 0.16 |
| CCUAAGCAAUAUUACGAACU | -3.44 ± 0.48 | -1.99 ± 0.22 |
| UGACAGCAAUAUUACGCGAG | -2.36 ± 0.11 | -2.06 ± 0.077 |
| UUGCAGCAAUAUUACGCUCG | -2.83 ± 0.62 | -2.06 ± 0.66 |
| GGUUAGCAAUAUUACGCGGU | -2.85 ± 0.49 | -2.36 ± 0.35 |
| UUCUAGCAAUAUUACGGGAC | -3.17 ± 0.59 | -1.06 ± 0.71 |
| UAAGAGCAAUAUUACGCGAC | -4.02 ± 0.73 | -2.52 ± 0.54 |
| CAGUAGCAAUAUUACGCCUU |  | -0.187 ± 0.56 |
| UUUCAGCAAUAUUACGCCUC | -1.67 ± 0.91 |  |
| GAGGAGCAAUAUUACGCCAC | -3.85 ± 0.59 | -2.39 ± 0.37 |
| CUGGAGCAAUAUUACGCUCG |  | -2.01 ± 0.5 |
| AGCAAGCAAUAUUACGCAGA | -2.73 ± 0.22 | -2.05 ± 0.18 |
| GUGUAGCAAUAUUACGACCG | 1.08 ± 1 |  |
| AUGGAGCAAUAUUACGGAGC | -3.99 ± 0.6 | -2.26 ± 0.65 |
| GCGUAGCAAUAUUACGCGCA | -2.16 ± 0.66 |  |
| GUUCAGCAAUAUUACGGAGA | -1.5 ± 0.64 |  |
| UAGUAGCAAUAUUACGAUAC |  | -2.32 ± 0.63 |
| UCAGAGCAAUAUUACGCCUU | -4.63 ± 1 |  |
| GGAAAGCAAUAUUACGGCCC | -0.297 ± 0.65 |  |
| CCUGAGCAAUAUUACGAAUU | -2.96 ± 0.2 | -2.15 ± 0.31 |
| AAGGAGCAAUAUUACGUGAA |  | -2.57 ± 0.75 |
| AGUGAGCAAUAUUACGAGGU |  | -2.84 ± 0.53 |

| Sequence | self-splicing fitness (ln) (30 °C) | self-splicing fitness (ln) (37 °C) |
| --- | --- | --- |
| GUGGAGCAAUAUUACGGCCA | -1.41 ± 0.63 |  |
| UCGAAGCAAUAUUACGCAAU | -4.21 ± 1 |  |
| UGAUAGCAAUAUUACGUAUC | -2.67 ± 0.48 | -3.39 ± 1 |
| AACGAGCAAUAUUACGACCC |  | 0.0469 ± 0.68 |
| AAAGAGCAAUAUUACGCCUC |  | -0.9 ± 0.53 |
| AGGAAGCAAUAUUACGUCCC | -3.58 ± 1 | -1.96 ± 0.66 |
| AACGAGCAAUAUUACGAGUC | -4 ± 0.74 |  |
| CCAGAGCAAUAUUACGAUUA |  | -1.79 ± 0.53 |
| CUAAAGCAAUAUUACGUCGG | -0.261 ± 0.061 | -0.189 ± 0.078 |
| GGAGAGCAAUAUUACGAACA | -1.43 ± 0.55 |  |
| CAGUAGCAAUAUUACGAACC |  | -2.39 ± 1.1 |
| CUAGAGCAAUAUUACGAACU | -1.73 ± 0.91 |  |
| GAUAAGCAAUAUUACGCUGA | -5.31 ± 1 |  |
| AGCCAGCAAUAUUACGAAAA | -3.76 ± 0.52 |  |
| GAUAAGCAAUAUUACGAGCA | -2.12 ± 0.18 | -0.853 ± 0.16 |
| GCGUAGCAAUAUUACGCUAC | -1.53 ± 0.72 | -0.921 ± 0.58 |
| UAACAGCAAUAUUACGUGAA | -1.61 ± 0.065 | -0.749 ± 0.083 |
| UCUUAGCAAUAUUACGCAGC | -3.01 ± 0.64 | -2.48 ± 1.1 |
| AUAGAGCAAUAUUACGAUGC | -2.3 ± 0.6 |  |
| UGCGAGCAAUAUUACGUCGG | -3.59 ± 0.61 |  |
| CCACAGCAAUAUUACGGCAU | -3.72 ± 0.16 | -2.54 ± 0.18 |
| AUAGAGCAAUAUUACGCCCC | -1.69 ± 0.91 |  |
| GAGUAGCAAUAUUACGCUGA | -2.52 ± 0.8 |  |
| CGGCAGCAAUAUUACGCCAG |  | -2.56 ± 0.55 |

| Sequence | self-splicing fitness (ln) (30 °C) | self-splicing fitness (ln) (37 °C) |
| --- | --- | --- |
| UUUAAGCAAUAUUACGAUAC | -3.42 ± 0.52 | -2.24 ± 0.78 |
| GACGAGCAAUAUUACGUCAA |  | -4.24 ± 0.72 |
| CCGGAGCAAUAUUACGCUAU | -4.42 ± 0.59 |  |
| GUAUAGCAAUAUUACGGUAC | -3.19 ± 0.53 |  |
| UAUUAGCAAUAUUACGGUAC | -4.04 ± 1.1 | 0.947 ± 1.1 |
| CUAGAGCAAUAUUACGUAAG | -0.628 ± 0.06 | 0.154 ± 0.089 |
| CAACAGCAAUAUUACGAAAU | -2.7 ± 0.12 | -2.47 ± 0.2 |
| UGAGAGCAAUAUUACGAGAA | -2.44 ± 1.1 |  |
| AGGGAGCAAUAUUACGCCUG | -1.96 ± 1.2 | -0.147 ± 0.93 |
| GGGGAGCAAUAUUACGCGAU | -3.26 ± 1 |  |
| UUUUAGCAAUAUUACGUAGC | -3.52 ± 0.62 | -1.5 ± 0.51 |
| GAAGAGCAAUAUUACGUCCG |  | -2.42 ± 0.54 |
| CGAGAGCAAUAUUACGCCAU | -2.89 ± 0.66 |  |
| CAGUAGCAAUAUUACGUCAC |  | -1.83 ± 0.79 |
| UGCCAGCAAUAUUACGAGAA | -3.31 ± 0.61 |  |
| GUCGAGCAAUAUUACGGCGG | -3.18 ± 0.68 |  |
| GUUAAGCAAUAUUACGAAGG | -2.17 ± 0.18 | -1.87 ± 0.28 |
| UCUUAGCAAUAUUACGCCAA | -2.47 ± 1.1 | -3.33 ± 1 |
| AACCAGCAAUAUUACGGGUA | -0.823 ± 0.045 | -0.376 ± 0.055 |
| AAGGAGCAAUAUUACGGCCG |  | -1.49 ± 0.81 |

Reformatted: results already given.
Sequence	self-splicing fitness (ln) (30 °C)	self-splicing fitness (ln) (37 °C)
CAUUAGCAAUAUUACGGCCC	-2.67 ± 0.57	-2.21 ± 0.8
CUAAAGCAAUAUUACGCCCU	-2.94 ± 0.84	-1.47 ± 1.2
CUUCAGCAAUAUUACGUCCC	-3.86 ± 0.74	
GCGGAGCAAUAUUACGGCUA	-2.01 ± 0.52	
GUCGAGCAAUAUUACGAAGG		-1.64 ± 0.68
AUAGAGCAAUAUUACGAGAA	-4.45 ± 0.59	
GUCAAGCAAUAUUACGCUGG	-4.08 ± 0.28	-3.72 ± 0.29
CAGGAGCAAUAUUACGGUGU	-3.1 ± 0.15	-2.66 ± 0.2
CGCGAGCAAUAUUACGACUU	-2.31 ± 0.5	
GAAGAGCAAUAUUACGCCGA	-2.92 ± 0.62	-4.93 ± 1
CUUCAGCAAUAUUACGUACA	-2.87 ± 0.63	
AUUGAGCAAUAUUACGCCAA	-1.2 ± 0.59	-0.98 ± 0.77
GAAGAGCAAUAUUACGAGGA	-2.21 ± 0.79	-2.66 ± 0.61
UUUGAGCAAUAUUACGUAGU		-3.69 ± 1
GUCGAGCAAUAUUACGAGAU	-4.44 ± 0.51	
CCAAAGCAAUAUUACGCUCC	-1.01 ± 0.2	-1.74 ± 0.36
CUGUAGCAAUAUUACGCCAG	-2.6 ± 0.78	-1.71 ± 0.59
GUUGAGCAAUAUUACGCUCU		-0.595 ± 0.78
AGAGAGCAAUAUUACGUUUG		-3.54 ± 0.74
CUAAAGCAAUAUUACGGUAC	-5.12 ± 0.51	
CGUAAGCAAUAUUACGUCUU	-3.7 ± 0.22	-1.37 ± 0.14
